Results are given in words; binding and its absence hold for the method and conditions named. Binding seen in cells or lysates may run through a third protein.
Target: glycogen synthase kinase 3β (GSK3β) (mouse (endogenous in hippocampus)) (UniProt Q9WV60)
Test: co-IP; endogenous kinase immunoprecipitated from hippocampal lysates of THY-Tau22 and littermate mice (12 months; non-injected, also AAV-Venus or AAV-APPsα injected) with α-CDK5 (Protein G beads) or α-GSK3β (Protein A beads); lysis buffer 0.05 M Tris-HCl pH 7.5, 0.25 M NaCl, 10 mM EDTA, 0.1% NP-40; 4°C; Western blot of the precipitate after the kinase reaction

Sequences of proteins named here, by UniProt entry; tags and fusion partners are left off.
UniProt Q9WV60: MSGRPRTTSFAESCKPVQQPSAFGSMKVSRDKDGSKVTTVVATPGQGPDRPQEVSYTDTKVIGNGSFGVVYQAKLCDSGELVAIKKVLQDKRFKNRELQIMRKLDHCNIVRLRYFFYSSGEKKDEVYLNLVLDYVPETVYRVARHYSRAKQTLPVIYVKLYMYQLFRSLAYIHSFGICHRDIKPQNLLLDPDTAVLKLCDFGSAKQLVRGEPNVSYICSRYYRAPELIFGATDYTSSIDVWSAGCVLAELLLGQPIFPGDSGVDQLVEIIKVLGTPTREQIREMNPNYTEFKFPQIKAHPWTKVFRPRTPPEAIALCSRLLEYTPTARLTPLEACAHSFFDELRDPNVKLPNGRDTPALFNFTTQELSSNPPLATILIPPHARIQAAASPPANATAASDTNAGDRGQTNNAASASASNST

binding: no binding
Substance: cyclin dependent kinase 5 (CDK5) (from UniProt P49615 1-292) (enzyme)

Reference: PMC9909437
